Reference: article PMC12053880
These are yes or no findings as the source states them, for the method shown. For some of these results: Binding seen in cells or lysates may run through a third protein. Some results given as binding are weak or reduced against the parent protein; the word gives no strength. For some of these results: Where a sequence is shown, tags or fusion partners need not be part of it.

Protein sequences, listed by entry. Tags and fused reporters are not part of them. Residues count along the entry.
UniProt P63104: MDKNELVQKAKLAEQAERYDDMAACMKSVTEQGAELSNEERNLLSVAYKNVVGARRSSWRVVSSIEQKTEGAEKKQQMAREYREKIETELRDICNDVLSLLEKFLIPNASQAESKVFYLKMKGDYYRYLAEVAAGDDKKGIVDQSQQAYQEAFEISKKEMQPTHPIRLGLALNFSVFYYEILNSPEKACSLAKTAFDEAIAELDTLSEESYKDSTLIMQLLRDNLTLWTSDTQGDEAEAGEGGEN
UniProt Q92830: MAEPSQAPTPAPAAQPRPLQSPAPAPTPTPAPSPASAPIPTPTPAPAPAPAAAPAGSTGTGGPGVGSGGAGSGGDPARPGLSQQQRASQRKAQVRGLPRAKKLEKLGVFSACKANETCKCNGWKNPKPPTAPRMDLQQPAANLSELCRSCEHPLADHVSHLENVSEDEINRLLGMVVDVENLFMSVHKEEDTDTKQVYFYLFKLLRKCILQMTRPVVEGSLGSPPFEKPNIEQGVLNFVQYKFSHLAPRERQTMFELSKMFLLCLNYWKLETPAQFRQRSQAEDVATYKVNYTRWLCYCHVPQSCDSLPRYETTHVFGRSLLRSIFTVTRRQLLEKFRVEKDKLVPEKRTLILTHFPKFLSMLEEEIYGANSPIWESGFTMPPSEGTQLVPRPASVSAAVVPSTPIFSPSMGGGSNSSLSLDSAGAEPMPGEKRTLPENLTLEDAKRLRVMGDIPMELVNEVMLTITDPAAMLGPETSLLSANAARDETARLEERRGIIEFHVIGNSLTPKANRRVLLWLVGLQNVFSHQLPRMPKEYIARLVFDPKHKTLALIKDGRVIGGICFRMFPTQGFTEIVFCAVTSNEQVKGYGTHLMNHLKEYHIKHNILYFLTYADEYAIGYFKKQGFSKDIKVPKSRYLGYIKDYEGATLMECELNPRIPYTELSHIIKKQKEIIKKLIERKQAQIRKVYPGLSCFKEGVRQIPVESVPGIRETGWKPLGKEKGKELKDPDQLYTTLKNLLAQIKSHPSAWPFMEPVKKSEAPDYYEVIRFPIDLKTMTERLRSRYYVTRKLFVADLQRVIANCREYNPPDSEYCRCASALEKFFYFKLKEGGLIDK
UniProt P31040, residues 43-664: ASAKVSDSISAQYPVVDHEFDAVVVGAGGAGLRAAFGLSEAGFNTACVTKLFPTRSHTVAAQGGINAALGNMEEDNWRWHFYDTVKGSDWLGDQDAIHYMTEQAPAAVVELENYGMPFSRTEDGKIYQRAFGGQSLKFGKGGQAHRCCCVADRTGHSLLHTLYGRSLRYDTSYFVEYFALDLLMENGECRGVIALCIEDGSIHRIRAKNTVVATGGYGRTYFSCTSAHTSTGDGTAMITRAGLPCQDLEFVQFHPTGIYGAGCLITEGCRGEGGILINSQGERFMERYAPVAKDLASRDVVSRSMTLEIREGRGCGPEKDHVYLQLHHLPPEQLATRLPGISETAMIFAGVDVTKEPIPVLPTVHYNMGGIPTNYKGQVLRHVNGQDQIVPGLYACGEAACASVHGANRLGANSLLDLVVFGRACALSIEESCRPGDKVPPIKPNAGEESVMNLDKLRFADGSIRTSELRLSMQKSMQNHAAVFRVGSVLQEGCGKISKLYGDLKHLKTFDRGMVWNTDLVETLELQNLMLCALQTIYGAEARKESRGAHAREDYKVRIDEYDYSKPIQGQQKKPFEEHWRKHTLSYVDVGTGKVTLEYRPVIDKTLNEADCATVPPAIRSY

What was measured:
[1] = target: YWHAZ-WT (wild-type YWHAZ, a 14-3-3 protein), 3×HA-tagged (human) (UniProt P63104); test: co-IP; lysates of MSCs incubated at 4°C overnight with Anti-HA and Anti-FLAG Nanobody Magarose Beads; rinsed with 0.05% Tween 20 in PBS and lysis buffer; western blotting
[2] = target: YWHAZ-GST recombinant protein (human) (UniProt P63104); test: pull-down; purified YWHAZ-GST immobilised on Glutathione-Sepharose beads (2 h, 4°C), incubated with SUCLG2 or OXCT1 recombinant protein overnight at 4°C in lysis buffer; immunoblotting; both purified

Row | binding [1] | binding [2] | Molecule
1 | no binding | – | lysine acetyltransferase 2A (KAT2A), FLAG-tagged (from UniProt Q92830 1-837) (enzyme)
2 | no binding | – | succinate dehydrogenase (SDHA), EGFP- and 3×FLAG-tagged (from UniProt P31040 43-664) (enzyme)
3 | binds | – | succinate-CoA ligase GDP-forming subunit beta (SUCLG2), 3×FLAG-tagged (enzyme, UniProt Q96I99 38-432) LNLQEYQSKKLMSDNGVRVQRFFVADTANEALEAAKRLNAKEIVLKAQILAGGRGKGVFNSGLKGGVHLTKDPNVVGQLAKQMIGYNLATKQTPKEGVKVNKVMVAEALDISRETYLAILMDRSCNGPVLVGSPQGGVDIEEVAASNPELIFKEQIDIFEGIKDSQAQRMAENLGFVGPLKSQAADQITKLYNLFLKIDATQVEVNPFGETPEGQVVCFDAKINFDDNAEFRQKDIFAMDDKSENEPIENEAAKYDLKYIGLDGNIACFVNGAGLAMATCDIIFLNGGKPANFLDLGGGVKEAQVYQAFKLLTADPKVEAILVNIFGGIVNCAIIANGITKACRELELKVPLVVRLEGTNVQEAQKILNNSGLPITSAIDLEDAAKKAVASVAKK
4 | – | binds | SUCLG2 recombinant protein (enzyme, UniProt Q96I99 38-432) LNLQEYQSKKLMSDNGVRVQRFFVADTANEALEAAKRLNAKEIVLKAQILAGGRGKGVFNSGLKGGVHLTKDPNVVGQLAKQMIGYNLATKQTPKEGVKVNKVMVAEALDISRETYLAILMDRSCNGPVLVGSPQGGVDIEEVAASNPELIFKEQIDIFEGIKDSQAQRMAENLGFVGPLKSQAADQITKLYNLFLKIDATQVEVNPFGETPEGQVVCFDAKINFDDNAEFRQKDIFAMDDKSENEPIENEAAKYDLKYIGLDGNIACFVNGAGLAMATCDIIFLNGGKPANFLDLGGGVKEAQVYQAFKLLTADPKVEAILVNIFGGIVNCAIIANGITKACRELELKVPLVVRLEGTNVQEAQKILNNSGLPITSAIDLEDAAKKAVASVAKK
